Assay results taken from publication PMC5015019.
These are yes or no findings as the source states them, for the method shown. In cells and extracts the contact can be indirect. Some results given as binding are weak or reduced against the parent protein; the word gives no strength. Tags and fused reporters may be left off the sequences shown.

By UniProt entry, the sequences of proteins in these tests, tags left out.
UniProt P08670: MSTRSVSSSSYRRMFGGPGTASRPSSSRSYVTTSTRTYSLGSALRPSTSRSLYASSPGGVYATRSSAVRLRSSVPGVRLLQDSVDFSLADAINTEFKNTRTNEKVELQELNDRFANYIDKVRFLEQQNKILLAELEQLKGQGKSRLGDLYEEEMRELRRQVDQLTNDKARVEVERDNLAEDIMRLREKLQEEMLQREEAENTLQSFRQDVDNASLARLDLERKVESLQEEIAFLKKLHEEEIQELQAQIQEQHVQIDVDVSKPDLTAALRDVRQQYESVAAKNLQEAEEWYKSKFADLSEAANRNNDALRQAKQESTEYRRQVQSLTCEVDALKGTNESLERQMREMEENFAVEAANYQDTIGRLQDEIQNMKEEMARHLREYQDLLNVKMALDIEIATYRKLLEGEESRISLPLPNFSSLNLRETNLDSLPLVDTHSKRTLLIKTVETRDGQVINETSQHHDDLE

How the values were obtained:
[1] = target: T1, Mac-2 binding protein (M2BP), myc-tagged (UniProt Q08380); test: co-IP; HEK293T expressing M2BP-myc, Flag-VIM and HIV-1 Gag together; lysates immunoprecipitated with the antibodies indicated in the figure, Western blot (Fig. 8C; Supplementary Fig. 5)
T1 sequence: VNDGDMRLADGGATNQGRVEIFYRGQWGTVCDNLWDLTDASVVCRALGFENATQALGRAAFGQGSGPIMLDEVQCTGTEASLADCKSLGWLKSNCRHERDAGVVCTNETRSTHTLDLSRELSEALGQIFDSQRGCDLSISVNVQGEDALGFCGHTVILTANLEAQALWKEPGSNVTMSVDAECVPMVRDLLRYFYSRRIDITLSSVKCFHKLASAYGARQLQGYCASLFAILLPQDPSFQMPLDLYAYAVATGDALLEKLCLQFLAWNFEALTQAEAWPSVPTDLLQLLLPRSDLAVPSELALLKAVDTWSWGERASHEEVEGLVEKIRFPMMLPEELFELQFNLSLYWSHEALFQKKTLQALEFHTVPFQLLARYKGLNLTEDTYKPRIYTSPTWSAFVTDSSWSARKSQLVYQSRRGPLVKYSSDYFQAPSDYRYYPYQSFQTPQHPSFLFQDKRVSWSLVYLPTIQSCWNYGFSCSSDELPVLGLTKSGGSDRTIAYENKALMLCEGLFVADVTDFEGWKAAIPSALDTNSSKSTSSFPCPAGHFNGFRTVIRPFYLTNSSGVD

[2] = target: T1, Mac-2 binding protein (M2BP), myc-tagged; test: co-IP; HEK293T co-transfected with M2BP-myc and Flag-VIM or pHIV-1_(NL4-3)ΔEnv-luc; M2BP immunoprecipitated (anti-c-myc agarose, 4 °C, 4 h), washes in TBST, Western blot (Fig. 8A,B)
[3] = target: T2, M2BP (251–585), myc-tagged truncation mutant (UniProt Q08380); test: co-IP; immunoprecipitation from cells expressing M2BP (251–585), VIM and Gag (Supplementary Fig. 6)
T2 sequence: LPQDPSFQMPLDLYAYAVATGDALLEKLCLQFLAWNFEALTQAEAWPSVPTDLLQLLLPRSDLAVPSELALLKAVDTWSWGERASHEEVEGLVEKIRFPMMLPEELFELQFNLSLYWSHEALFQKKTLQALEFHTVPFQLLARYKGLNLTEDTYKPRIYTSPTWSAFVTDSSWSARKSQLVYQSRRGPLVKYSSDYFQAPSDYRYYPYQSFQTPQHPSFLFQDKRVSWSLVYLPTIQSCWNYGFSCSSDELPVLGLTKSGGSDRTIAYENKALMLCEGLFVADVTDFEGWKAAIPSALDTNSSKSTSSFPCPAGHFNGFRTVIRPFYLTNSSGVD

[4] = target: T3, M2BP (124–585), myc-tagged truncation mutant (UniProt Q08380); test: co-IP; immunoprecipitation from cells expressing M2BP (124–585), VIM and Gag (Supplementary Fig. 6)
T3 sequence: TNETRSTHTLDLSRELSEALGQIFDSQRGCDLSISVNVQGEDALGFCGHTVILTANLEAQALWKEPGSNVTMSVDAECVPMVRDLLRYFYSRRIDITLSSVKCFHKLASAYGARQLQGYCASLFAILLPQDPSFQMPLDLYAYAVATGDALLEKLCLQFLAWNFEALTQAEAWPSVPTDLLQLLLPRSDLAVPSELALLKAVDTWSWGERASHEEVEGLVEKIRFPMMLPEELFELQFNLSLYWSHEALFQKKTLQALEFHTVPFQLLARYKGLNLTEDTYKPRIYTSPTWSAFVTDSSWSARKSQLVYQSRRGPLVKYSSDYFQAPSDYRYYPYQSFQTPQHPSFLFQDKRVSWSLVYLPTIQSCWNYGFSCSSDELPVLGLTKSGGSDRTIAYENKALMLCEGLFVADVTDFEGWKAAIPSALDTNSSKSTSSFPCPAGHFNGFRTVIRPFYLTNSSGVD

binding [1]: binds
binding [2]: binds
binding [3]: binds
binding [4]: binds
Substance: Vimentin (VIM), Flag-tagged (from UniProt P08670 1-466)
